{"source": "PubChem BioAssay AID743454 (Peter MacCallum Cancer Centre, 2014)", "purpose": "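Genes whose loss kills vorinostat-resistant colon cancer cells under vorinostat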 (primary screen)", "cells": "human HCT116-VR colon cancer cells, selected for vorinostat resistance", "knock-down reagent": "siRNA pool against human genes, 40 nM siRNA pool", "duration": "vorinostat for 24 h, read-out about 72 h after transfection", "conditions": "vorinostat at 2.5 µM final", "measured": "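Two measures, CellTiter-Fluor viability and luminescent caspase 3/7 activity, each as fold change against same-plate mock wells, mean of duplicates, then screen-wide robust z-score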", "direction": "viability robust z-score: higher = more viable cells than screen typical; caspase robust z-score: higher = more caspase 3/7 activity than screen typical", "rule for the call": "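Hits are knock-downs in viability class RV1/RV2 or caspase class CA1/CA2, excluding ones that killed cells in the no-drug cell-count arm; hits then retested with single siRNAs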", "note": "In all, the deposit lists about 18,000 reagents; below is a part drawn at random. 450 of them (2.5%) were called active. 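Single biological run; no consistent viability z cut-off exists, so the class columns, not z-scores, define the calls.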 Entries without a mark were called inactive. Reagents against one gene are numbered here."}
{"Gene": "XRCC6 (X-ray repair cross complementing 6)", "reagent no.": 1, "viability hit class": "no change", "caspase hit class": "no change", "viability robust z-score": -0.94, "caspase robust z-score": -0.62}
{"Gene": "KRTAP10-12 (keratin associated protein 10-12)", "reagent no.": 1, "viability hit class": "no change", "caspase hit class": "no change", "viability robust z-score": -0.48, "caspase robust z-score": 2.66}
{"Gene": "HDAC10 (histone deacetylase 10)", "reagent no.": 1, "viability hit class": "no change", "caspase hit class": "no change", "viability robust z-score": -0.56, "caspase robust z-score": 0.96}
{"Gene": "NPC1 (NPC intracellular cholesterol transporter 1)", "reagent no.": 1, "viability hit class": "no change", "caspase hit class": "no change", "viability robust z-score": 1.45, "caspase robust z-score": -0.6}
{"Gene": "CENPN (centromere protein N)", "reagent no.": 1, "viability hit class": "no change", "caspase hit class": "no change", "viability robust z-score": -0.44, "caspase robust z-score": 0.38}
{"Gene": "BTK (Bruton tyrosine kinase)", "reagent no.": 1, "viability hit class": "no change", "caspase hit class": "no change", "viability robust z-score": 0.02, "caspase robust z-score": 0.16}
{"Gene": "FAF2 (Fas associated factor family member 2)", "reagent no.": 1, "viability hit class": "no change", "caspase hit class": "no change", "viability robust z-score": -0.43, "caspase robust z-score": -0.86}
{"Gene": "SLC25A25", "reagent no.": 1, "viability hit class": "no change", "caspase hit class": "no change", "viability robust z-score": 1.68, "caspase robust z-score": -0.55}
{"Gene": "GABRA2 (gamma-aminobutyric acid type A receptor subunit alpha2)", "reagent no.": 1, "viability hit class": "no change", "caspase hit class": "no change", "viability robust z-score": -0.05, "caspase robust z-score": -0.28}
{"Gene": "GTF2A2 (general transcription factor IIA subunit 2)", "reagent no.": 1, "viability hit class": "no change", "caspase hit class": "no change", "viability robust z-score": 1.12, "caspase robust z-score": -0.1}
{"Gene": "NUDT14 (nudix hydrolase 14)", "reagent no.": 1, "viability hit class": "no change", "caspase hit class": "no change", "viability robust z-score": -0.38, "caspase robust z-score": 5.07}
{"Gene": "ARL13A (ARF like GTPase 13A)", "reagent no.": 1, "viability hit class": "no change", "caspase hit class": "no change", "viability robust z-score": 1.08, "caspase robust z-score": -1.09}
{"Gene": "IL21R (interleukin 21 receptor)", "reagent no.": 1, "viability hit class": "no change", "caspase hit class": "no change", "viability robust z-score": -0.52, "caspase robust z-score": -0.84}
{"Gene": "TAFA1 (TAFA chemokine like family member 1)", "reagent no.": 1, "viability hit class": "no change", "caspase hit class": "no change", "viability robust z-score": -0.8, "caspase robust z-score": -0.32}
{"Gene": "EHD4 (EH domain containing 4)", "reagent no.": 1, "viability hit class": "no change", "caspase hit class": "no change", "viability robust z-score": -0.13, "caspase robust z-score": 2.22}
{"Gene": "FAM199X (family with sequence similarity 199, X-linked)", "reagent no.": 1, "viability hit class": "no change", "caspase hit class": "no change", "viability robust z-score": 0.3, "caspase robust z-score": -0.44}
{"Gene": "HIGD2A (HIG1 hypoxia inducible domain family member 2A)", "reagent no.": 1, "viability hit class": "no change", "caspase hit class": "no change", "viability robust z-score": -3.64, "caspase robust z-score": 0.09}
{"Gene": "SPDYA (speedy/RINGO cell cycle regulator family member A)", "reagent no.": 1, "viability hit class": "no change", "caspase hit class": "no change", "viability robust z-score": 0.01, "caspase robust z-score": -0.07}
{"Gene": "TRIM64C (tripartite motif containing 64C)", "reagent no.": 1, "viability hit class": "no change", "caspase hit class": "no change", "viability robust z-score": -1.94, "caspase robust z-score": -0.12}
{"Gene": "TRIM64C (tripartite motif containing 64C)", "reagent no.": 2, "viability hit class": "no change", "caspase hit class": "no change", "viability robust z-score": 0.29, "caspase robust z-score": -0.3}
{"Gene": "OGFOD1", "reagent no.": 1, "viability hit class": "no change", "caspase hit class": "no change", "viability robust z-score": -0.38, "caspase robust z-score": 0.16}

3 of these entries, set out differently.
CENPN (centromere protein N)
- viability hit class: no change
- caspase hit class: no change
- viability robust z-score: -0.44
- caspase robust z-score: 0.38

BTK (Bruton tyrosine kinase)
- viability hit class: no change
- caspase hit class: no change
- viability robust z-score: 0.02
- caspase robust z-score: 0.16

FAF2 (Fas associated factor family member 2)
- viability hit class: no change
- caspase hit class: no change
- viability robust z-score: -0.43
- caspase robust z-score: -0.86
